PubChem BioAssay AID652259 | Drosophila RNAi Screening Center | 2013
In all, the deposit lists about 22,000 reagents; below is a random part of those that have a named target and a result. In the full data, 233 (1.1%) are marked active. 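Light values are raw, unnormalised plate reads; the ratio scores behind the reporter calls were not deposited.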 The numbers tell different reagents against one gene apart. Names joined by + are all predicted targets of the reagent. Not stated in the record: the amount of reagent, the time to read-out, the dose of the treatment.

Assay: 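Genome-wide hunt for genes that control Wingless pathway activity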 (primary screen)
System: Drosophila clone 8 imaginal disc epithelial cells
Knock-down reagent: long dsRNA against Drosophila genes
Conditions: pathway stimulated by co-transfected Wingless expression plasmid
Measured: 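Dual luciferase reads per well after Wingless plasmid stimulation: reporter firefly light and Renilla control light; activity is firefly divided by Renilla, a ratio not deposited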
Scale: firefly reporter light: higher = more Wg reporter light, before normalisation; Renilla control light: higher = more transfected or surviving cells
Hit rule: 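Strong candidates differ from their plate mean by at least two out of four per-plate statistical tests; weak candidates meet just one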
Meaning of the calls: active = candidate regulator (raises or lowers reporter); inactive = not a candidate

no.	target gene	reagent no.	reporter change call, replicate 1	firefly reporter light, replicate 1	firefly reporter light, replicate 2	Renilla control light, replicate 1	Renilla control light, replicate 2	Call
1	TER94 (Transitional endoplasmic reticulum 94)	1		8213		2001		inactive
2	Tre1 (Trapped in endoderm 1)	1		18202		8112		inactive
3	NC2alpha (Negative Cofactor 2alpha)	1	Wg reporter activity raised	19224		1537		active
4	wapl (wings apart-like)	1		2104	4616	1068	1958	inactive
5	karr	1		16314		11053		inactive
6	ry (rosy)	1		4661		1957		inactive
7	CG17977	1		2672	9217	929	3632	inactive
8	CG31522	1		2896		1398		inactive
9	CG31370	1		5.29e5	5.32e5	1.90e5	1.94e5	inactive
10	CG7142	1		17881		3744		inactive
11	CG12942	1		11014		2759		inactive
12	Vinc (Vinculin)	1		1825	6192	912	2339	inactive
13	18w (18 wheeler)	1		13875		2957		inactive
14	swa (swallow)	1		2512	5456	752	1686	inactive
15	CG13004	1		26947		9472		inactive
16	CG32428	1		2009		582		inactive
17	CG32428	2		12704		4757		inactive
18	CG8929	1		15573		4617		inactive
19	CG8929	2		9.76e5	6.00e5	4.41e5	4.83e5	inactive
20	CG32971	1		11290		6506		inactive
21	CG5687	1		12394		4413		inactive
22	Xe7	1		17827		3137		inactive
23	ebi	1	Wg reporter activity lowered	4595		3814		active
24	Gnmt (Glycine N-methyltransferase)	1		14157		4348		inactive
25	CG5521	1		7659		2424		inactive
26	CG16904	1		5754		2220		inactive
27	HemK2 + Snapin	1		10784		4312		inactive
28	HemK2 + Snapin	2		3304	7159	1156	1942	inactive
29	shv (shriveled)	1		6220	8907	2029	3693	inactive
30	shv (shriveled)	2		8.15e5	7.51e5	3.33e5	3.97e5	inactive
31	CG3045	1		10882		2969		inactive
32	Pura (Puratrophin-1-like)	1		3947		1146		inactive
33	Pura (Puratrophin-1-like)	2		934	7113	656	3031	inactive
34	Pura (Puratrophin-1-like)	3		1093	8950	791	2857	inactive
35	Pura (Puratrophin-1-like)	4		1500	6171	1041	3127	inactive
36	Pura (Puratrophin-1-like)	5		1920	7866	1832	5056	inactive
37	S6k (Ribosomal protein S6 kinase)	1		1684	6643	1652	4163	inactive
38	CG3108	1		4725	7979	1287	2667	inactive
39	CG30110	1		19496		12362		inactive
40	CG34384	1		4242		1792		inactive
41	CG34384	2		4786		2032		inactive
42	CG34384	3		16624		3576		inactive
43	CG34384	4		21929		6485		inactive
44	CG34384	5		15977		4729		inactive
45	Orai	1		19929		12461		inactive
46	Orai	2		4.50e5	4.93e5	2.27e5	1.72e5	inactive
47	CG12391	1		10972		3296		inactive
48	SRPK (SR Protein Kinase)	1		19059		1869		inactive
49	CG15370	1		18745		5321		inactive

Part of the list above, reformatted:
| target gene | reagent no. | reporter change call, replicate 1 | firefly reporter light, replicate 1 | firefly reporter light, replicate 2 | Renilla control light, replicate 1 | Renilla control light, replicate 2 | Call |
| --- | --- | --- | --- | --- | --- | --- | --- |
| karr | 1 | – | 16314 | – | 11053 | – | inactive |
| ry (rosy) | 1 | – | 4661 | – | 1957 | – | inactive |
| CG17977 | 1 | – | 2672 | 9217 | 929 | 3632 | inactive |
| CG31522 | 1 | – | 2896 | – | 1398 | – | inactive |
| CG31370 | 1 | – | 5.29e5 | 5.32e5 | 1.90e5 | 1.94e5 | inactive |
| CG7142 | 1 | – | 17881 | – | 3744 | – | inactive |
| CG12942 | 1 | – | 11014 | – | 2759 | – | inactive |
